According to US20210163582A1:
No constants are given. Whether binding was seen depends on the method and setting. Some results given as binding are weak or reduced against the parent protein; the word gives no strength.

By UniProt entry, the sequences of proteins in these tests, tags left out. Where a name states a change or a piece, a line headed by the entry shows the natural chain unless it says otherwise. Chains listed by the source or under a name are the forms on record and can include a tag or linker.
Tau species in AD (Alzheimer's disease) brain lysate (P10636, form named): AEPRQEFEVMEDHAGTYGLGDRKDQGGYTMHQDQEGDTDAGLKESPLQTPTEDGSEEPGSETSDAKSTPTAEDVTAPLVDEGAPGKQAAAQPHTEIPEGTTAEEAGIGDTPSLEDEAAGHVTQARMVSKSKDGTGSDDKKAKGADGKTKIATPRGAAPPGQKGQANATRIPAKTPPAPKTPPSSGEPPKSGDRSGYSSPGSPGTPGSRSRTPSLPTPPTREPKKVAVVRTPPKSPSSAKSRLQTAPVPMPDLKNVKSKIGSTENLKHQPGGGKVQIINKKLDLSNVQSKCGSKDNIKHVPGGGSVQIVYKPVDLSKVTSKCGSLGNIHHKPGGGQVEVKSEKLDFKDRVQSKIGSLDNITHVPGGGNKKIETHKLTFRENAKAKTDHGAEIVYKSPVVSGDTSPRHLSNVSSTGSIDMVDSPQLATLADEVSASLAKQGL

What was measured:
[1] = target: Tau species in AD (Alzheimer's disease) brain lysate (human) (UniProt P10636); test: western blot of AD brain lysate
[2] = target: Tau species in ND (non-demented) brain lysate (human) (UniProt P10636); test: immunohistochemistry of human brain slices
[3] = target: Tau species in AD (Alzheimer's disease) brain lysate (human) (UniProt P10636); test: immunohistochemistry of human brain slices
[4] = target: Tau species in AD (Alzheimer's disease) brain lysate (human) (UniProt P10636); test: dot-blot of SEC fractions of brain lysates
[5] = target: Tau species in AD (Alzheimer's disease) brain lysate (human) (UniProt P10636); test: dot-blot of sucrose-gradient fractions of brain lysate, non-denaturing
[6] = target: Tau species localized at the synapses of AD brains (human) (UniProt P10636); test: restated from the dot-blot of Example 4
[7] = target: Tau species in PSP (progressive supranuclear palsy) brain (human) (UniProt P10636); test: immunohistochemistry of PSP brain slices
[8] = target: Tau species in the sarkosyl-soluble fraction (S1) of AD brain lysate (human) (UniProt P10636); test: western blot of sarkosyl fractions of AD brain lysate
[9] = target: Tau species in the sarkosyl-insoluble fraction (P2) of AD brain lysate (human) (UniProt P10636); test: as above
[10] = target: Tau species in AD (Alzheimer's disease) brain lysate (human) (UniProt P10636); test: dot-blot of total brain lysates, non-denaturing
[11] = target: Tau species localized at the synapses of AD brains (human) (UniProt P10636); test: dot-blot of cytosol and synaptoneurosome fractions, non-denaturing
[12] = target: Tau species in ND (non-demented) brain lysate (human) (UniProt P10636); test: western blot of ND brain lysate

Measured: binding

B1: mAb005 (antibody, V domains shown)
VH: EVQLVESGGGLVKPGGSLKLSCAASGFTFSDYGMHWVRQAPEKGLEWVAYSNSDSTTIYYADTVKGRFTISRDNAKSTLFLQMTSLRSEDTAMYYCGRSYYSNYVDYWGQGTTLTVSS
VL: DIVMTQIPLSLPVSLGDQASISCRSSQSLVHSNGNTYLHWYLQKPGQSPKLLIYKVSNRFSGVPDRFSGSGSGTDFTLKISRVEAEDLGVYFCFQSTHVPPTFGGGTKLEIK
binds: all assays above

B2: mAb008 (antibody, V domains shown)
VH: EVKLLQSGGGLVQPGGSLKVSCAASGFDFSRYWMSWVRRAPGKGLEWIGEINPDGNAINYAPSLKDKFIVSRDNAKNTLYLQMSNVRSEDTALYYCARPFPSVWGTGTTVTVSS
VL: DVLMTQTPLSLPVSLGDQASISCRSSQSLVRSNGNTYLEWYLQNPGQSPKLLIYKVSNRFSGVPDRFSGSGSGTDFTLKISRVEAEDLGVYYCFQGSHVPYTFGGGTKLEIK
binds: [6] | [10] | [11]

B3: mAb025 (antibody, V domains shown)
VH: QIQLVQSGPELKKPGETVKISCKASGYTFTTHGMSWVKQAPGKGLKWMGWINTYSGVPTYTDDFKGRFAFSLETSASTAYLQINNLKNEDTATYFCARSELSWFAYWGQGTLVTVSA
VL: DIVMTQSPATLSVTPGDRVSLSCRASQSISDYLHWYQQKSHESPRLLIKYASQSISGIPSRFSGSGSGSDFTLSINSVEPEDVGVYYCQNGHSFPYTFGGGTKLEIK
binds: [6] | [10] | [11]

B4: mAb032 (antibody, V domains shown)
VH: QVQLQQSGAELVKPGASVKISCKASGYAFSSYWMNWVKQRPGKGLEWIGQIYPGDGDTDYNGKFKGKATLTADTSSSTAYMQLSSLTSEDSAVYFCASRSPYWGQGTLVTVSA
VL: DILMTQTPLSLPVSLGDQASISCRSSQSIVHSNGNTYLEWYLQKPGQSPKLLIYKVSNRFSGVPDRFSGSGSGTDFTLKISRVEAEDLGVYYCFQGSHVPYTFGGGTKLEIK
binds: [6] | [10] | [11]

B5: mAb004 (antibody, V domains shown)
VH: EVQLVESGGDLVESGGSLKLSCAASGFTFSSYGMSWVRQTPDKRLEWVATISSSGSYTYYPDSVKGRFTISRDNAKNTLYLQMSSLNSEDTAMYYCADTYYGAMDYWGQGTSVTVSS
VL: DVLMTQTPLSLPVSLGDQASISCRSSQTIVHSNGNTYLEWYLQKPGQSPKLLIYKVSNRFSGVPDRFSGSGSGTDFTLKISRVEAEDLGVYYCFQGSLVPWTFGGGTQLEIR
binds: [10]

B6: mAb033 (antibody, V domains shown)
VH: QVTLKESGPGILQPSQTLSLTCSFSGFSLSTFGMGVGWFRQPSGKGLEWLAHIWWDDDKYYNPALKSRLTISKDTSKNQVFLKIANVDTADTATYYCARRGSNALDYWGQGTSVTVSS
VL: DVVVTQTPLSLPVSFGDQVSISCRSSQSLANSYGNTYLSWYLHKPGQSPQLLIYGISNRFSGVPDRFSGSGSGTDFTLKISTIKPEDLGMYYCLQGTHQPWTFGGGTKLEIK
binds: [10]
